Construct, isoform or probe ends are uncertain for at least one entry. For some of these results: A weaker result is weaker than the reference pair of the same experiment. At least one verdict rests on a figure or table, not on a statement of the authors.
Experiments:
[1] = tested on: Lsm1-7 (Schizosaccharomyces pombe); assay: fluorescence polarization; settings: FP: 100 mM NaCl, 20 mM Tris pH 8.2 (final ~8), 10 mM MgCl2, 1 mM TCEP, 1 mM Na azide, 0.1 mg/mL each tRNA, BSA and heparin; temperature not stated; 1 nM RNA final; recombinant protein; label: 5'-FAM
[2] = tested on: Lsm1Δ56C-7 (Schizosaccharomyces pombe); assay: fluorescence polarization; settings: FP: 100 mM NaCl, 20 mM Tris pH 8.2 (final ~8), 10 mM MgCl2, 1 mM TCEP, 1 mM Na azide, 0.1 mg/mL each tRNA, BSA and heparin; temperature not stated; 1 nM RNA final; recombinant protein; protein details: as P2; label: 5'-FAM

ACCCAUUUUU
binding result [1]: binds more weakly

UUUUUUUUUUUUUAA [U13AA]
binding result [2]: binds

UUUUUUUUUUUUUUA [U14A]
binding result [2]: binds

UUUUUUUUUUUUUUU [U15]
binding result [2]: binds

— paper PMC7491322
